PubChem BioAssay AID743454 – Peter MacCallum Cancer Centre – 2014
Aim: 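Genes whose loss kills vorinostat-resistant colon cancer cells under vorinostat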 (primary screen). Cell system: human HCT116-VR colon cancer cells, selected for vorinostat resistance. Knock-down reagent: siRNA pool against human genes, 40 nM siRNA pool. Time to read-out: vorinostat for 24 h, read-out about 72 h after transfection. Challenge: vorinostat at 2.5 µM final. Read-out: 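Cell viability by CellTiter-Fluor and caspase 3/7 activity by luminescence, each scaled to mock wells per plate, duplicates averaged, then robust z-scored over all plates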. Reading the numbers: viability robust z-score: higher = more viable cells than screen typical; caspase robust z-score: higher = more caspase 3/7 activity than screen typical. Hit rule: 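Hits are knock-downs in viability class RV1/RV2 or caspase class CA1/CA2, excluding ones that killed cells in the no-drug cell-count arm; hits then retested with single siRNAs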.
In all, the deposit lists about 18,000 reagents; shown is a random part of them. Of all reagents, 450 (2.5%) got an active call. 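Single biological run; no consistent viability z cut-off exists, so the class columns, not z-scores, define the calls.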

target | viability hit class | caspase hit class | viability robust z-score | caspase robust z-score | call
RPL32 (ribosomal protein L32) | no change | no change | -5.2 | -1.05 | inactive
CNN2 (calponin 2) | no change | no change | 0.55 | 1.1 | inactive
ZNF710 (zinc finger protein 710) | no change | no change | 0.52 | 0.29 | inactive
OPRPN (opiorphin prepropeptide) | no change | no change | 0.88 | -0.96 | inactive
ZNF781 (zinc finger protein 781 (pseudogene)) | no change | no change | 0.22 | -0.94 | inactive
AVPR1B (arginine vasopressin receptor 1B) | no change | no change | -0.83 | 0.04 | inactive
MBNL1 (muscleblind like splicing regulator 1) | no change | no change | -0.38 | 0.85 | inactive
RPS15 (ribosomal protein S15) | no change | no change | -3.34 | -1.19 | inactive
CP (ceruloplasmin) | no change | no change | 1 | -0.68 | inactive
GUCA1B (guanylate cyclase activator 1B) | no change | no change | 0.65 | 0.61 | inactive
MYOD1 (myogenic differentiation 1) | no change | no change | 0.8 | -0.77 | inactive
FBXO46 (F-box protein 46) | no change | no change | 0.66 | -0.24 | inactive
KCNG4 | no change | no change | 0.04 | -0.08 | inactive
RPS18 (ribosomal protein S18) | no change | no change | -4.17 | -0.56 | inactive
JOSD1 (Josephin domain containing 1) | no change | no change | 1.42 | -0.06 | inactive
GIMAP6 (GTPase, IMAP family member 6) | no change | no change | 0.8 | 0.21 | inactive
DEFB121 (defensin beta 121) | no change | no change | -0.78 | -0.7 | inactive
ST14 (ST14 transmembrane serine protease matriptase) | no change | no change | 0.02 | 1.29 | inactive
OR4X1 (olfactory receptor family 4 subfamily X member 1) | no change | no change | -0.67 | 2.22 | inactive
REXO5 (RNA exonuclease 5) | no change | no change | 0.12 | -0.66 | inactive
MCCC1 (methylcrotonyl-CoA carboxylase subunit 1) | no change | no change | -0.4 | -0.86 | inactive
TMOD4 (tropomodulin 4) | no change | no change | 0.26 | -0.12 | inactive
ALG1 (ALG1 chitobiosyldiphosphodolichol beta-mannosyltransferase) | no change | no change | 0.72 | -0.74 | inactive
WDR7 (WD repeat domain 7) | no change | no change | -0.75 | 0.28 | inactive
LSM11 (LSM11, U7 small nuclear RNA associated) | no change | no change | 0.08 | -0.14 | inactive
PLIN4 (perilipin 4) | no change | no change | 0.44 | -0.42 | inactive
TESMIN (testis expressed metallothionein like protein) | no change | no change | 0.9 | -0.2 | inactive
TRIM51G (tripartite motif-containing 51G) | no change | CA1 (caspase activation) | 0.7 | -0.3 | active
NSUN7 (NOP2/Sun RNA methyltransferase family member 7) | no change | no change | -0.02 | -0.68 | inactive
YIPF1 (Yip1 domain family member 1) | no change | no change | -0.44 | 0.2 | inactive
ALDH16A1 (aldehyde dehydrogenase 16 family member A1) | no change | no change | 0.9 | -0.92 | inactive
TRIM35 (tripartite motif containing 35) | no change | no change | -0.9 | 0.54 | inactive
UQCRQ (ubiquinol-cytochrome c reductase complex III subunit VII) | no change | no change | -2.7 | 5.19 | inactive
GSTT2B (glutathione S-transferase theta 2B) | no change | no change | 0.64 | 0.74 | inactive
PNPO (pyridoxamine 5'-phosphate oxidase) | no change | no change | 1.05 | 0.32 | inactive
DUSP10 (dual specificity phosphatase 10) | no change | no change | 0.39 | 0.03 | inactive
ZNF345 (zinc finger protein 345) | no change | no change | 0.07 | -0.4 | inactive
MOCS1 (molybdenum cofactor synthesis 1) | no change | no change | 0.6 | 1.29 | inactive
TOGARAM1 (TOG array regulator of axonemal microtubules 1) | no change | no change | 1.35 | -0.62 | inactive

Part of the list above, reformatted.
target	viability hit class	caspase hit class	viability robust z-score	caspase robust z-score	call
RPS15 (ribosomal protein S15)	no change	no change	-3.34	-1.19	inactive
CP (ceruloplasmin)	no change	no change	1	-0.68	inactive
GUCA1B (guanylate cyclase activator 1B)	no change	no change	0.65	0.61	inactive
MYOD1 (myogenic differentiation 1)	no change	no change	0.8	-0.77	inactive
FBXO46 (F-box protein 46)	no change	no change	0.66	-0.24	inactive
